Assay [1] concerns the target neural cell adhesion receptor L1CAM (UniProt P11627). The assay can be described thus: co-IP; reciprocal co-immunoprecipitation of endogenous proteins: precipitated with RanBP9 antibody and L1CAM detected, and precipitated with L1CAM antibodies and RanBP9 detected; lysate and buffer not stated.
Assay [2] addresses Ran-binding protein 9 (RanBP9) (UniProt P69566). Described as above.

Chains of the proteins cited; added tags and fusions are not shown. Residues count along the entry.
UniProt P11627, residues 20-1260: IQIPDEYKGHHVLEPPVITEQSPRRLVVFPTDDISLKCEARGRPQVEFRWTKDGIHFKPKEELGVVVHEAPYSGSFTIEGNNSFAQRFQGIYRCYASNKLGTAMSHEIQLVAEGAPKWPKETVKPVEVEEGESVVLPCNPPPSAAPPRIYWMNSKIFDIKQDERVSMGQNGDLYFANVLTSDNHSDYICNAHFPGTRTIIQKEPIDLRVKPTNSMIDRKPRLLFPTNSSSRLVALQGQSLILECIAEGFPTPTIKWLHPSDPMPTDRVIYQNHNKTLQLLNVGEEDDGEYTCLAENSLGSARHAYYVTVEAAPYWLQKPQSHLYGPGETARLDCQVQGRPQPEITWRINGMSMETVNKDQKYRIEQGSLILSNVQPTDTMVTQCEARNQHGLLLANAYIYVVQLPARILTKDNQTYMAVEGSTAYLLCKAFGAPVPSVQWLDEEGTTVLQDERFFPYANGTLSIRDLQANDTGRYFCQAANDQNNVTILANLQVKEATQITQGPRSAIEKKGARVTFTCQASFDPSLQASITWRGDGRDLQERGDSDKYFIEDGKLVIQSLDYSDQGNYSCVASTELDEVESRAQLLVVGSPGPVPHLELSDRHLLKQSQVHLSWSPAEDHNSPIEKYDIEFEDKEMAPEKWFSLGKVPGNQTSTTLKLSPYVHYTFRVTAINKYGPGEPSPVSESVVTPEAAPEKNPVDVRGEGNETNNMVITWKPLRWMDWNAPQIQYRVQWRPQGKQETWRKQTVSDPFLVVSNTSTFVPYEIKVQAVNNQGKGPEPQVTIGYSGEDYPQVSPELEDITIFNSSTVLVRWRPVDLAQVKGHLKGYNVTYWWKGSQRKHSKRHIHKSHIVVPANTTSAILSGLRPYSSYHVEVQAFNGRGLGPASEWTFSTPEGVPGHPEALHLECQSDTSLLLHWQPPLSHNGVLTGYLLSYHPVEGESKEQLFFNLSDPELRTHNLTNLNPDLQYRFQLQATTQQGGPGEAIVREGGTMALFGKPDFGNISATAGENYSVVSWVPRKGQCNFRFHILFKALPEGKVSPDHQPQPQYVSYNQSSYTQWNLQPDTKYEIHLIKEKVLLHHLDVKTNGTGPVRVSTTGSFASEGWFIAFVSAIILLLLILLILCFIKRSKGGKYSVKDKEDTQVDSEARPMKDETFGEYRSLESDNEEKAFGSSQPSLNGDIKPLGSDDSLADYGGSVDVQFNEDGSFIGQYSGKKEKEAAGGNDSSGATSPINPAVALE
UniProt P69566: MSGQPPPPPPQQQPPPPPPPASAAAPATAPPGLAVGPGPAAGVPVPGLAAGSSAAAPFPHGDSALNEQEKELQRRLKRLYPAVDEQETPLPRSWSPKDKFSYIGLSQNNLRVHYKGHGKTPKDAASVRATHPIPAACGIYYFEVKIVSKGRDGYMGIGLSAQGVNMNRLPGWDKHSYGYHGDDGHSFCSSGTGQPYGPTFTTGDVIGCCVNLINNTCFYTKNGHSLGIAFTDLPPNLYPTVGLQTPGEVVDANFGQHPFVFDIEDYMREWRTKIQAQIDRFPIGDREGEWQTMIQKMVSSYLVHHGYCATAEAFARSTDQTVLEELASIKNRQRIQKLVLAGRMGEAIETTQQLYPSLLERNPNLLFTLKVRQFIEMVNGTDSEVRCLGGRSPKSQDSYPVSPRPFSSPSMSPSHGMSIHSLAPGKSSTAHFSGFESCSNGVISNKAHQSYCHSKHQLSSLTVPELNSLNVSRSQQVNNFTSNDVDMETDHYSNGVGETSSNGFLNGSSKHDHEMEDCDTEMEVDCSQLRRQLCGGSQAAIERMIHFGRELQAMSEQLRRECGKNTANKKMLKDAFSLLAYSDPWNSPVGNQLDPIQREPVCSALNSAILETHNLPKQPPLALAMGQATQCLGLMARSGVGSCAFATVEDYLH

Results are given in words; binding and its absence hold for the method and conditions named. In cells and extracts the contact can be indirect. Some binding calls cover weakened binding; strength is not graded here.

For the substance “Ran-binding protein 9 (RanBP9) (from UniProt P69566 1-653)”, the binding entry in assay [1] is “binds”.
Take “neural cell adhesion receptor L1CAM (from UniProt P11627 20-1260)”: in assay [2], the binding result is listed as “binds”.

For the origin of these results see PMC3694151.
